No constants are given. Whether binding was seen depends on the method and setting. Some binding calls cover weakened binding; strength is not graded here.
Target: murine low density lipoprotein receptor-related protein (LRP) / α2-macroglobulin receptor, CTGF receptor on murine cells (murine) (UniProt Q91ZX7)
Assay: competition with 125I-CTGF on BMS-2 cells

Sequences of proteins named here, by UniProt entry; tags and fusion partners are left off. Residues count along the entry.
UniProt Q91ZX7, residues 20-4545: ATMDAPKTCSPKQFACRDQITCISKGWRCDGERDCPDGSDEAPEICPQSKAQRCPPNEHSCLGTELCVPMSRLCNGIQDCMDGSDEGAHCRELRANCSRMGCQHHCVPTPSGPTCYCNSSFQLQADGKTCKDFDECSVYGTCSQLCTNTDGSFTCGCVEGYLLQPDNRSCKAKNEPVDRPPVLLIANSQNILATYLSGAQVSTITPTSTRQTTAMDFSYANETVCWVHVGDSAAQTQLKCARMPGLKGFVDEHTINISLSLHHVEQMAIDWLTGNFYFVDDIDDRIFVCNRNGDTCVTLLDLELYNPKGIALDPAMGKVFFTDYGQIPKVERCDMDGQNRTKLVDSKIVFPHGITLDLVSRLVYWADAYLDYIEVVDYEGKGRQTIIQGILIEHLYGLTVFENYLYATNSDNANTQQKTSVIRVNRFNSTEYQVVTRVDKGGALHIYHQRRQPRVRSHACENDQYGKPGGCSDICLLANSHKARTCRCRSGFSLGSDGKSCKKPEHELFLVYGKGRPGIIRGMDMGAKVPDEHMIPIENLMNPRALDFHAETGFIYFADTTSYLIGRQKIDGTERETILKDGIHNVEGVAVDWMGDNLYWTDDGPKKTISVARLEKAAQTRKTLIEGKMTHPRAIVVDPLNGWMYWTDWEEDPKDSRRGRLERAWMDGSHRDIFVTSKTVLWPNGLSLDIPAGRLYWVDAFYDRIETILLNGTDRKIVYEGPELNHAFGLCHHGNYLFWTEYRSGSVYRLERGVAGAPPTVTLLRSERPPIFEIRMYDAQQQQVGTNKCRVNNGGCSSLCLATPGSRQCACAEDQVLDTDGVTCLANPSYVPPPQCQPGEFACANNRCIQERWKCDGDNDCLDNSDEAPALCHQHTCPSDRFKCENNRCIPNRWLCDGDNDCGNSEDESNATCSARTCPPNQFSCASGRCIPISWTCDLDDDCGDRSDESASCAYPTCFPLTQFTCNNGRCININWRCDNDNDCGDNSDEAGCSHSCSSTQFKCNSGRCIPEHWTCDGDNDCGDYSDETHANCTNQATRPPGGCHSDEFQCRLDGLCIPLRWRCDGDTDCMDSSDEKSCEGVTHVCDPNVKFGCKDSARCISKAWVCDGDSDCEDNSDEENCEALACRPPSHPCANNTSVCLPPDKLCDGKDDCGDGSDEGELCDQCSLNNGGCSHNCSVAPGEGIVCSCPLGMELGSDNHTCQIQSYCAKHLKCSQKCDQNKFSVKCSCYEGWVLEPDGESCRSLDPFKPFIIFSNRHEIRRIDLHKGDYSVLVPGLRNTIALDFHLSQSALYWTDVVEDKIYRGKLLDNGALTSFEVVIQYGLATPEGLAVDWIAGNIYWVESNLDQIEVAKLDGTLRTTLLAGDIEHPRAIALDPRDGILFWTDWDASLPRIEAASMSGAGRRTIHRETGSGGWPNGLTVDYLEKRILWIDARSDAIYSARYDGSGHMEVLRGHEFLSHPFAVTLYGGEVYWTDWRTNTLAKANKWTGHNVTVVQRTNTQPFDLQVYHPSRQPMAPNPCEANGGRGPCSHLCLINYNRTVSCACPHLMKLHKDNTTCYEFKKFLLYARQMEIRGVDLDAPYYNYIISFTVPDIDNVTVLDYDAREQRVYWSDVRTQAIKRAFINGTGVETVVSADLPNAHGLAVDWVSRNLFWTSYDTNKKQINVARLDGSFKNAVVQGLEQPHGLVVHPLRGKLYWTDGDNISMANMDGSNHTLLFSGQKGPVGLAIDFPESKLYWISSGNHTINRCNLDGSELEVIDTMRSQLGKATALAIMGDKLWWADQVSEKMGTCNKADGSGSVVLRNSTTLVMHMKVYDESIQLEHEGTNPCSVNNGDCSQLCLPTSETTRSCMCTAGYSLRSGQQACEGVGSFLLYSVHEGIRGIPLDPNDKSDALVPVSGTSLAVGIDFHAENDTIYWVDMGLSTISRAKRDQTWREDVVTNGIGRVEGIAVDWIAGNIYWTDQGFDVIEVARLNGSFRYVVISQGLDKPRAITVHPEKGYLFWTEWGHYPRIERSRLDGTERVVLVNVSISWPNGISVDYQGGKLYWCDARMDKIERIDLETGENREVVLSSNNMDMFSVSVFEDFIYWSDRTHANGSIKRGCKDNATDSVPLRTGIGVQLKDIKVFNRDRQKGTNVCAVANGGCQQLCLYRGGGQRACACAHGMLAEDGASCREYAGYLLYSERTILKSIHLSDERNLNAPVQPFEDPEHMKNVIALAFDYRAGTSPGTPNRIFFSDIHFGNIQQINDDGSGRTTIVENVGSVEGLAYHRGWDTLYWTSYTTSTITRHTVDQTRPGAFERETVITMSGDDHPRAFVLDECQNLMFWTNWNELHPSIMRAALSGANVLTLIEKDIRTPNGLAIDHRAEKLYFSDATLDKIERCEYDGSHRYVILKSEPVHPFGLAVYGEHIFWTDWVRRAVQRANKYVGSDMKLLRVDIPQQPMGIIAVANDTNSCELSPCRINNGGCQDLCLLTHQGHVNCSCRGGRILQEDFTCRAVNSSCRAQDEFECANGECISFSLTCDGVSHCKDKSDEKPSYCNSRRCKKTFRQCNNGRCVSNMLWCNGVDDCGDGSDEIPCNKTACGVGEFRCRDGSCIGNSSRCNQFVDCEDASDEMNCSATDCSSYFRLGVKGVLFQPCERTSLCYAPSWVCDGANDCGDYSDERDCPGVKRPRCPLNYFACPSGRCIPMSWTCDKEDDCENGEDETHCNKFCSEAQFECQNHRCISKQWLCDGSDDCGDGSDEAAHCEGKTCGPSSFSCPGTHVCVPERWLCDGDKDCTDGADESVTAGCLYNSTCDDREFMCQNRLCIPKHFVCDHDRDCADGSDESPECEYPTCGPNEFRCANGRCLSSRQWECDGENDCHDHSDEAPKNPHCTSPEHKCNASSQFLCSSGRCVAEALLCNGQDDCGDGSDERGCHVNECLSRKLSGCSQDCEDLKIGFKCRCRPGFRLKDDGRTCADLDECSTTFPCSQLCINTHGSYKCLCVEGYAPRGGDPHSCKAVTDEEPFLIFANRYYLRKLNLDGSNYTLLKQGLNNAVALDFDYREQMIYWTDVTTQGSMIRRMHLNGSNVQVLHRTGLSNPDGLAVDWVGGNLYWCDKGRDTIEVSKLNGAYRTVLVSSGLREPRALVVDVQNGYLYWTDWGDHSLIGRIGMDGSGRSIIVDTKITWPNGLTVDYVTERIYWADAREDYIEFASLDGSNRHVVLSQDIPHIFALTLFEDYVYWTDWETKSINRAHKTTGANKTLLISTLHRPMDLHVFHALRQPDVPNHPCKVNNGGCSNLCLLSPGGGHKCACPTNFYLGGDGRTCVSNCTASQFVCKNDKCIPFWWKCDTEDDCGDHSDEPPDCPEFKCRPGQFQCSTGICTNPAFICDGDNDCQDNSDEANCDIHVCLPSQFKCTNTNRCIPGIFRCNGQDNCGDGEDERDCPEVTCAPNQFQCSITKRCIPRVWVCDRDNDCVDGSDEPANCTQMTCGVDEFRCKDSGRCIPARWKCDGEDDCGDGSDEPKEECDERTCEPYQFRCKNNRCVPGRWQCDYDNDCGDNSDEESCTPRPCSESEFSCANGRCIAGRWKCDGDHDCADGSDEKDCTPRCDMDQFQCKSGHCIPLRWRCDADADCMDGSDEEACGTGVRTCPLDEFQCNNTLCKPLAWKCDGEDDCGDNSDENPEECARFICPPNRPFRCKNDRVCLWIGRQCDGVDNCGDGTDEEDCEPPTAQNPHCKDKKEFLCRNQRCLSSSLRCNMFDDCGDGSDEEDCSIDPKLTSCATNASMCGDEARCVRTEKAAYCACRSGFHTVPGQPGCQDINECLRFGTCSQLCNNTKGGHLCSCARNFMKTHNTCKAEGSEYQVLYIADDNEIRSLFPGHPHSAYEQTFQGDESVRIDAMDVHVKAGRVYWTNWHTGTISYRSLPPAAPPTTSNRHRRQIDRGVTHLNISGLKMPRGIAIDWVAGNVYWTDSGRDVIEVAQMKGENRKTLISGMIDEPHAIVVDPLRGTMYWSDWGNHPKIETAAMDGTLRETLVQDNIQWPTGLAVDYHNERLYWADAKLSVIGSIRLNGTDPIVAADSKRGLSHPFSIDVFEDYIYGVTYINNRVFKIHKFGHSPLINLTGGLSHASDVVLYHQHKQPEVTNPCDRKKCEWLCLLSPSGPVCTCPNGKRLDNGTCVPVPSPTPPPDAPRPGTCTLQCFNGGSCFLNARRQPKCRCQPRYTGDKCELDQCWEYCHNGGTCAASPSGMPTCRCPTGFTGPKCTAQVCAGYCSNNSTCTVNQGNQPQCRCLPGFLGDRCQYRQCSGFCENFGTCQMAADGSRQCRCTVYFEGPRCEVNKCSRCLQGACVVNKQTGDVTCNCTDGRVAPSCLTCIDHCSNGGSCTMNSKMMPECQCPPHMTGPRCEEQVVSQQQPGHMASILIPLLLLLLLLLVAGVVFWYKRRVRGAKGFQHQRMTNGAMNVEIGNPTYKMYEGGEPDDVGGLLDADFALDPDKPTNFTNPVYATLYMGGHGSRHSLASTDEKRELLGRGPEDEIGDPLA
UniProt P30533, residues 35-357: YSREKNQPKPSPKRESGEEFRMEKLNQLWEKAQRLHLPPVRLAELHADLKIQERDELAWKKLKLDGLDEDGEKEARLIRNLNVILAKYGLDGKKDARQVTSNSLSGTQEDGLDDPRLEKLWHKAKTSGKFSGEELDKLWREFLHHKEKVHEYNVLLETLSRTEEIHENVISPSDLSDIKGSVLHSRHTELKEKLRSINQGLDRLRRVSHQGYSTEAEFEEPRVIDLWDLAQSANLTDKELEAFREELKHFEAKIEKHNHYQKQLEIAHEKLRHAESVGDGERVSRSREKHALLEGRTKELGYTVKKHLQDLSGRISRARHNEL

binding: binds
Substance: RAP-GST (receptor associated protein - glutathione S-transferase) fusion protein (from UniProt P30533 35-357)

Source: patent publication US6555322
